Data as given in the supplement of paper PMC10849652.
The list shows a part of the results. Residues, ends and D or L forms follow the SMILES beside them. *: point of attachment. Cbz = O=C(OCc1ccccc1)*

By UniProt entry, the sequences of proteins in these tests, tags left out. Where a name states a change or a piece, a line headed by the entry shows the natural chain unless it says otherwise.
UniProt Q70HW3: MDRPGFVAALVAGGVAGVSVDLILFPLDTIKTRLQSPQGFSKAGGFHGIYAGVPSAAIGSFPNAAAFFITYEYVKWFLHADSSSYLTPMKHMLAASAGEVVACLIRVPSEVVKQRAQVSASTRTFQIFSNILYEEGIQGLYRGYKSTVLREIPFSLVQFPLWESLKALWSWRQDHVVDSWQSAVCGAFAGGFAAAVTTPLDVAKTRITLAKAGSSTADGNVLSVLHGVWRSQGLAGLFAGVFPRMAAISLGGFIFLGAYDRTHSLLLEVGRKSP
UniProt Q9H0C2: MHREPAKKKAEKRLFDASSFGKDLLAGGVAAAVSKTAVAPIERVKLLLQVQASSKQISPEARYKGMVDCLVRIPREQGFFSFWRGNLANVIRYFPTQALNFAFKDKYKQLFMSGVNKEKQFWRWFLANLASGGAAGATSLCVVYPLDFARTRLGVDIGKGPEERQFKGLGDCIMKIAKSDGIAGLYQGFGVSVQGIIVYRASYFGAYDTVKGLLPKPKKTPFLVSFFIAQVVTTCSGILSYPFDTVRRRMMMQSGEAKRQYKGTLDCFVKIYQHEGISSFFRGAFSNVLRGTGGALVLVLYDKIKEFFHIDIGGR
UniProt P53794: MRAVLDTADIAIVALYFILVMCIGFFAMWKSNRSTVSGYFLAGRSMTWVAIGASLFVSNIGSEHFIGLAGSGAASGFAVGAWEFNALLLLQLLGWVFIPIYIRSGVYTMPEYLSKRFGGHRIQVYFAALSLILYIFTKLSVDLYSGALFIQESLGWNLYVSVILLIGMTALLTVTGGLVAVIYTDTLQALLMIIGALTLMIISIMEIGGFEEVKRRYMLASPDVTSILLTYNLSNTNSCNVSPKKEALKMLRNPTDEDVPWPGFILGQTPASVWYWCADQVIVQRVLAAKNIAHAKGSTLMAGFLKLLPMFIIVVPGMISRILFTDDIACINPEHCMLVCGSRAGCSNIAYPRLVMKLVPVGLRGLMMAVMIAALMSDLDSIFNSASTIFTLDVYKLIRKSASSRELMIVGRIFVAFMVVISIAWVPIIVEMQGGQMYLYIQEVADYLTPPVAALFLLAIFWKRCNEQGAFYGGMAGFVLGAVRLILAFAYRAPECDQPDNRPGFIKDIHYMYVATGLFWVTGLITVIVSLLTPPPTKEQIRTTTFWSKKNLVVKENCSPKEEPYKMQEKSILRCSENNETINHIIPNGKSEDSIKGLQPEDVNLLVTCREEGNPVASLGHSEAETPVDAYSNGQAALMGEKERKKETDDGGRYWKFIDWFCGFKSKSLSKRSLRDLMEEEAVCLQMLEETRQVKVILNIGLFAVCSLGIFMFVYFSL
UniProt Q9HC21: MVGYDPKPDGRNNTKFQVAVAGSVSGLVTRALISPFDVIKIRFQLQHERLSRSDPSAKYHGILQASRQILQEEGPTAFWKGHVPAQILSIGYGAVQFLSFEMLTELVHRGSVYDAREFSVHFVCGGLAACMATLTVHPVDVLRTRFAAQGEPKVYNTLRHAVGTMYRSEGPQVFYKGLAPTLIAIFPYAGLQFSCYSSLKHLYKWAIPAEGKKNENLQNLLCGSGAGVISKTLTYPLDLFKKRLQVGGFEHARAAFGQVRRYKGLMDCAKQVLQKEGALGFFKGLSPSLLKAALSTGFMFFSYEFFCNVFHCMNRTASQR
UniProt Q9Y289: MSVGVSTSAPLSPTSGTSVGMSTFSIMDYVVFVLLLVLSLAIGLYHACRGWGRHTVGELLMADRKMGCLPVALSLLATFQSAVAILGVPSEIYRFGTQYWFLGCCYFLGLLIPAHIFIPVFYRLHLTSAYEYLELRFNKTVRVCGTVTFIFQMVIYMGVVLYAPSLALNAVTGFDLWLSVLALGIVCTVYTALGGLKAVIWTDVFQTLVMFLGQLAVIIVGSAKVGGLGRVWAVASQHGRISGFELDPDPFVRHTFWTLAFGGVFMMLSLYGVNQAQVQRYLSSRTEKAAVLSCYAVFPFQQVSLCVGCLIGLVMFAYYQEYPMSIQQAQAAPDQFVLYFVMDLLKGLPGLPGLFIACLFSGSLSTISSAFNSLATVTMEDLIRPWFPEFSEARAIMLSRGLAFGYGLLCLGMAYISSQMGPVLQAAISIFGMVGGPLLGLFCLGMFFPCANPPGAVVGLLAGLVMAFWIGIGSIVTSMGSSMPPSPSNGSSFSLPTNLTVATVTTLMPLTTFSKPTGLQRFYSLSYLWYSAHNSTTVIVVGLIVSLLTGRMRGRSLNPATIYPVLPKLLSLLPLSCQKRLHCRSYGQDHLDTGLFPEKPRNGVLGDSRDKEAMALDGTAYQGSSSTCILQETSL
UniProt Q13433: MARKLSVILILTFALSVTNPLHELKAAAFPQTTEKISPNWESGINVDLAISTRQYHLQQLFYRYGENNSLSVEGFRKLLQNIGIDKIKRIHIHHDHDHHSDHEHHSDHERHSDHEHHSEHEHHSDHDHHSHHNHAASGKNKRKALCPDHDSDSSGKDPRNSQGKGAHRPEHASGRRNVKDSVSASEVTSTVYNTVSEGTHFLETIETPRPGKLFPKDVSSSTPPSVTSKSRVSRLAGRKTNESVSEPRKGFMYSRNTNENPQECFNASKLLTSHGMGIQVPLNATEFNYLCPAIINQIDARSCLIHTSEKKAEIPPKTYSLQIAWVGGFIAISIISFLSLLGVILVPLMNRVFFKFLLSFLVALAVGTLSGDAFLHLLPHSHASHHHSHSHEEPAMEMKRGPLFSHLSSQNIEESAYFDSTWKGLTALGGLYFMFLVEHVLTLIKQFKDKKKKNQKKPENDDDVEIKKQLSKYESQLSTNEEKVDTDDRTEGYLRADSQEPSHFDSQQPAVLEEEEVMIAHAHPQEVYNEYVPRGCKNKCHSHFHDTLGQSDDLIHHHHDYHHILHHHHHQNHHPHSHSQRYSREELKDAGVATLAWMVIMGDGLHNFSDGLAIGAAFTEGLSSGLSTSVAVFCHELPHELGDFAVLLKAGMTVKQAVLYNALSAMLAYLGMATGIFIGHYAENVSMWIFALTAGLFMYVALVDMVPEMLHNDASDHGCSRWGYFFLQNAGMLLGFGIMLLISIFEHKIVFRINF
UniProt Q96AG3: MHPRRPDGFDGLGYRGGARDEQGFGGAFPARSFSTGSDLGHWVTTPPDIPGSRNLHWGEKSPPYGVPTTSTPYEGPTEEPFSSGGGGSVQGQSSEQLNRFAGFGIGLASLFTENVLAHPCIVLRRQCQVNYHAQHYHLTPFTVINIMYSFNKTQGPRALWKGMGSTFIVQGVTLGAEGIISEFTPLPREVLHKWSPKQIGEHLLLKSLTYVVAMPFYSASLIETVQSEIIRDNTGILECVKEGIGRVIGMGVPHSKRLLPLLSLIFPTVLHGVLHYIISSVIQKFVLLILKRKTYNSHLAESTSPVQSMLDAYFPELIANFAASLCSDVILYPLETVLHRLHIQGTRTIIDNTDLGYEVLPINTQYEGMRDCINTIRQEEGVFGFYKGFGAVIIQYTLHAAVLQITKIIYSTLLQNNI
UniProt O00400: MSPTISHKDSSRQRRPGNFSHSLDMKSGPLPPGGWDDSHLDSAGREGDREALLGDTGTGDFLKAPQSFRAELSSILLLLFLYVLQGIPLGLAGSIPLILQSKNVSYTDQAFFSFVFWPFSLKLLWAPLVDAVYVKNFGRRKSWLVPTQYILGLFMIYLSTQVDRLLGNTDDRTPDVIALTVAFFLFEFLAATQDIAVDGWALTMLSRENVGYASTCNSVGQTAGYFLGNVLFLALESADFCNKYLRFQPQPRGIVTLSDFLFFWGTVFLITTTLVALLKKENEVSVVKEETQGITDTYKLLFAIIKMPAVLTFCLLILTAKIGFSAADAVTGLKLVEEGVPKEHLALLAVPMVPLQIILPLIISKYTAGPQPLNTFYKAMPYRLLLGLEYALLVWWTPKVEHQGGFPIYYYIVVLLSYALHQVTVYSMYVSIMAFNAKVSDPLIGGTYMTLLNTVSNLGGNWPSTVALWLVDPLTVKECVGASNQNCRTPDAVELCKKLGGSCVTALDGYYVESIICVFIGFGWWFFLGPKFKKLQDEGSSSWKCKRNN
UniProt F5GZS6: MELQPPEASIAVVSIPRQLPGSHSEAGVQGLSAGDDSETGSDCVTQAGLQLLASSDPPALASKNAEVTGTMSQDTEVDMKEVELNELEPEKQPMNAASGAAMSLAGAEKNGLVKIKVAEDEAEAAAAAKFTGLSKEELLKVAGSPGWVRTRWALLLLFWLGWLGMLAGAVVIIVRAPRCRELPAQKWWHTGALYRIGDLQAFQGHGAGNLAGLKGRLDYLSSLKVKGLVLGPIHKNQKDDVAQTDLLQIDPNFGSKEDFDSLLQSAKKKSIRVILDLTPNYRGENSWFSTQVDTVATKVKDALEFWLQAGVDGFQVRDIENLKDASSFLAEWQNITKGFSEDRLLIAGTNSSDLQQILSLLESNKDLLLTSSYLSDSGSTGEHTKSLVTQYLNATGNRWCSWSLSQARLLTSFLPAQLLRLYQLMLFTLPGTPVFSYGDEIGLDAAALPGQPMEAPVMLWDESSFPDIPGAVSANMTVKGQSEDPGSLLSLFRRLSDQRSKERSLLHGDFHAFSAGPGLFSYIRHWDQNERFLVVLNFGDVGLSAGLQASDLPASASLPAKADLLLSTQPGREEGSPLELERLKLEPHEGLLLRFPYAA
UniProt Q6PML9: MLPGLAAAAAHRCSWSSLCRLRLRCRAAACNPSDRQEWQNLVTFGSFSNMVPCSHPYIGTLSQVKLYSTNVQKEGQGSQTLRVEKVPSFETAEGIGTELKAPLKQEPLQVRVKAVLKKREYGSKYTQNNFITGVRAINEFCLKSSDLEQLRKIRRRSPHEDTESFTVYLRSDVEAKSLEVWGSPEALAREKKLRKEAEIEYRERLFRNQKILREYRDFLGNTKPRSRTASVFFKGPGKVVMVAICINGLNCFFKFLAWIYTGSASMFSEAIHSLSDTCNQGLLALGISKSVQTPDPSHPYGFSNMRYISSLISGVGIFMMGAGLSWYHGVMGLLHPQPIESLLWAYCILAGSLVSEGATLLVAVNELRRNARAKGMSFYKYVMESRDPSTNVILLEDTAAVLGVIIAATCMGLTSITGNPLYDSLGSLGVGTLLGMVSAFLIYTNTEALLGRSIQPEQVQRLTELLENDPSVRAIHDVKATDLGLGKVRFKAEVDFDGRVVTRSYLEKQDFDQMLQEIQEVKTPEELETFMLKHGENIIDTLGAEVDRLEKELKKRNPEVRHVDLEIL
UniProt L0R6Q1: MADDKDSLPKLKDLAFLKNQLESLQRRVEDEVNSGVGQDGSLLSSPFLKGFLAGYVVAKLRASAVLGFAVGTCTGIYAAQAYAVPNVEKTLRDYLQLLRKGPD
UniProt Q08357: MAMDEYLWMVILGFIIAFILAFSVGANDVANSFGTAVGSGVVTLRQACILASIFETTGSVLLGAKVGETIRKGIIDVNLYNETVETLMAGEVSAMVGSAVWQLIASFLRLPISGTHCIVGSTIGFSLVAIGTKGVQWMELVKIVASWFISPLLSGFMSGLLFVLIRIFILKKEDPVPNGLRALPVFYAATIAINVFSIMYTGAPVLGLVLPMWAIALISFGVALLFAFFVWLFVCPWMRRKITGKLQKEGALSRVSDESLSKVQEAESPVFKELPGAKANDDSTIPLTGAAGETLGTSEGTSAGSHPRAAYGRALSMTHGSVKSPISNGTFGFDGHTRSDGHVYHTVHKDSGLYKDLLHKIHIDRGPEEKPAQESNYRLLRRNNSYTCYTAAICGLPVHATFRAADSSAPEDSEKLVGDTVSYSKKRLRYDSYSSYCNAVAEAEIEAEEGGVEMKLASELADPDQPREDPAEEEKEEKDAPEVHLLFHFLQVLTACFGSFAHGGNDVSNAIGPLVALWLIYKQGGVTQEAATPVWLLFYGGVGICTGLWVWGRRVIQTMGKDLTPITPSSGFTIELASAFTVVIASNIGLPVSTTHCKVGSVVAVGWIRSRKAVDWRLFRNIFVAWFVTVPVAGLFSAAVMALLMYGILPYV

Legend:
Test in all cases: log2 fold change, soluble protein after heating vs DMSO (PISA); higher = thermal stabilisation; K562 cells, 10 uM, 30 min; active = over 0.2 and 3.5 SD of the protein, either way, in both replicates (recomputed)
[1] = compound: C#Cc1cccc(Nc2ncnc3cc(OCCOC)c(OCCOC)cc23)c1 [erlotinib]
Method in brief: (§1)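 K562 cells (2×10^6 cells/mL) were treated with 10 μM compound for 30 min, and aliquots were heated for 3 min over 48°C-58°C. Pooled aliquots were extracted in PBS with 0.5% NP-40 at 4°C, and the supernatant after 21,000xg for 90 min was measured by TMTpro 16plex LC-MS/MS with channel sums equalised. Reported thermal stability, relative to control samples and from duplicates, is a log2 fold change.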

[2] = compound: C/C(=N\NC(=O)C1=CC(=CC=C1)S(=O)(=O)N2CCOCC2)/C3=C(C=CC(=C3)Cl)O
Method in brief: as §1

[3] = compound: C1=CC(=C(C=C1Cl)C2=NC3=NC=CN=C3C(=N2)NC4=CC=NC=C4)F
Method in brief: as §1

[4] = compound: C1=CC(=CC=C1C2=NC3=C(N2)C=C(C=C3)C(=O)N)OC4=CC=C(C=C4)Cl
Method in brief: as §1

[5] = compound: C1=CC2=C(C=CC(=C2)/C=C\3/C(=O)NC(=NCC4=CC=CS4)S3)N=C1
Method in brief: as §1

[6] = compound: C1=CC2=NC=CN=C2C=C1/C=C/3\C(=O)NC(=O)S3
Method in brief: as §1

[7] = compound: C1=CC=C(C=C1)C2=NC(=C(N2)C3=CC=NC=C3)C4=CC(=C(C=C4)Cl)O
Method in brief: as §1

[8] = compound: C1=CC=C2C(=C1)C3=NNC4=CC=CC(=C43)C2=O
Method in brief: as §1

[9] = compound: C1CCN(C1)C(=O)NC2=CC=CC(=C2)NC3=NC=C(C(=N3)NCCC4=CN=CN4)Br
Method in brief: as §1

[10] = compound: C1CN(CCC1(CC2=CC=C(C=C2)Cl)N)C3=NC=NC4=C3C=CN4
Method in brief: as §1

[11] = compound: C1COCCN1CCN2C3=CC=CC=C3N=C2NC(=O)C4=CC(=CC=C4)[N+](=O)[O-] [IRAK-1-4 Inhibitor I]
Method in brief: as §1

[12] = compound: C=CC(=O)N1CCC[C@@H](n2nc(-c3ccc(Oc4ccccc4)cc3)c3c(N)ncnc32)C1 [ibrutinib]
Method in brief: as §1

[13] = compound: CC(=O)c1cnc2ccc(-c3cc(Cl)c(O)c(Cl)c3)nc2c1N[C@H]1CC[C@H](CN(C)C)CC1
Method in brief: as §1

[14] = compound: CC(C)(C)Cn1c(N)nc2ccc(-c3[nH]c(C(C)(C)C)nc3-c3ccc(F)cc3)nc21 [ralimetinib]
Method in brief: as §1

[15] = compound: CC(C)(O)CC(=O)NCCn1ccc2ncnc(Nc3ccc(Oc4cccc(C(F)(F)F)c4)c(Cl)c3)c21
Method in brief: as §1

[16] = compound: CC(C)C1=C2N=C(C=C(N2N=C1)NCC3=CC=CC=C3)NCCCCCCN
Method in brief: as §1

[17] = compound: CC(C)C[C@@H](C=O)NC(=O)[C@H](CC(C)C)NC(=O)[C@H](CC(C)C)NC(=O)OCc1ccccc1
Method in brief: as §1

[18] = compound: CC(C)N(C[C@H]1O[C@@H](n2cnc3c(N)ncnc32)[C@H](O)[C@@H]1O)[C@H]1C[C@@H](CCc2nc3cc(C(C)(C)C)ccc3[nH]2)C1 [pinometostat]
Method in brief: as §1

[19] = compound: CC1=C(C(CC(=O)N1)C2=CC=C(C=C2)C(F)(F)F)C(=O)NC3=C(C=C4C(=C3)C=NN4)F
Method in brief: as §1

[20] = compound: CC1=C(C2=C(C=C1)C(=O)C3=CC=CC=C3N2CCCN)C
Method in brief: as §1

Measured: log2 fold change

SLC12A4 (UniProt Q9UP95)
inactive: [1] 0.02 | [2] -0.027 | [3] 0.05 | [4] 0.018 | [5] 0.006 | [6] 0.152 | [7] 0.032 | [8] -0.063 | [9] -0.079 | [10] 0.1 | [11] -0.004 | [12] -0.029 | [13] -0.033 | [14] 0.036 | [15] 0.013 | [16] -0.042 | [17] -0.002 | [18] -0.011 | [19] 0.021 | [20] -0.076

SLC25A26 (UniProt Q70HW3)
inactive: [1] 0.095 | [2] 0.001 | [3] 0.004 | [4] 0.041 | [5] -0.015 | [6] 0.032 | [7] -0.127 | [8] 0.114 | [9] 0.097 | [10] -0.147 | [11] 0.022 | [12] -0.012 | [13] -0.013 | [14] -0.087 | [15] -0.031 | [16] -0.086 | [17] 0.083 | [18] 0.176 | [19] -0.023 | [20] 0.152

SLC25A31 (UniProt Q9H0C2)
inactive: [1] 0.015 | [2] 0.016 | [3] 0.047 | [4] -0.013 | [5] -0.011 | [6] 0.009 | [7] 0.043 | [8] 0.021 | [9] -0.034 | [10] 0.036 | [11] 0.023 | [12] 0.04 | [13] -0.001 | [14] -0.021 | [15] 0.012 | [16] 0.056 | [17] -0.061 | [18] -0.095 | [19] -0.001 | [20] 0.018

SLC5A3 (UniProt P53794)
inactive: [1] -0.025 | [2] -0.012 | [3] 0.052 | [4] 0.017 | [5] -0.036 | [6] 0.032 | [7] 0.023 | [8] -0.155 | [9] -0.034 | [10] 0.074 | [11] 0.022 | [12] 0.052 | [13] -0.014 | [14] 0.034 | [15] -0.004 | [16] 0.165 | [17] -0.045 | [18] -0.037 | [19] -0.017 | [20] 0.061

SLC25A19 (UniProt Q9HC21)
inactive: [1] 0.005 | [2] -0.012 | [3] 0.052 | [4] 0 | [5] -0.01 | [6] 0.03 | [7] -0.032 | [8] -0.033 | [9] 0.034 | [10] 0.049 | [11] 0.037 | [12] 0.009 | [13] 0.049 | [14] -0.032 | [15] 0.046 | [16] 0.057 | [17] -0.028 | [18] -0.031 | [19] 0.004 | [20] 0.02

SLC5A6 (UniProt Q9Y289)
inactive: [1] 0.012 | [2] 0.103 | [3] -0.008 | [4] 0.04 | [5] 0.007 | [6] 0.056 | [7] 0.059 | [8] -0.012 | [9] -0.041 | [10] 0.093 | [11] 0.004 | [12] 0.022 | [13] 0.031 | [14] -0.063 | [15] -0.002 | [16] 0.165 | [17] -0.021 | [18] -0.018 | [19] 0.002 | [20] 0.007

SLC39A6 (UniProt Q13433)
inactive: [1] -0.017 | [2] -0.015 | [3] 0.047 | [4] 0.081 | [5] -0.012 | [6] -0.024 | [7] -0.008 | [8] -0.002 | [9] 0.007 | [10] 0.124 | [11] -0.094 | [12] -0.059 | [13] -0.018 | [14] 0.001 | [15] -0.068 | [16] 0.254 | [17] -0.029 | [18] -0.031 | [19] -0.012 | [20] -0.049

SLC25A46 (UniProt Q96AG3)
inactive: [1] 0.008 | [2] 0.032 | [3] 0.051 | [4] -0.01 | [5] 0.023 | [6] -0.003 | [7] 0.038 | [8] 0.023 | [9] 0.057 | [10] 0.004 | [11] 0.039 | [12] -0.023 | [13] -0.034 | [14] -0.027 | [15] -0.075 | [16] 0.028 | [17] -0.033 | [18] -0.062 | [19] 0.012 | [20] 0.009

SLC33A1 (UniProt O00400)
inactive: [1] 0.005 | [2] -0.014 | [3] 0.051 | [4] 0.006 | [5] 0.011 | [6] 0.063 | [7] 0.187 | [8] 0.025 | [9] -0.026 | [10] 0.093 | [11] 0.006 | [12] 0.023 | [13] 0.006 | [14] 0.044 | [15] -0.025 | [16] -0.057 | [17] -0.088 | [18] -0.057 | [19] -0.03 | [20] 0.013

SLC3A2 (UniProt F5GZS6)
inactive: [1] 0.136 | [2] -0.038 | [3] -0.037 | [4] 0.019 | [5] -0.238 | [6] 0.059 | [7] 0.168 | [8] -0.037 | [9] 0.132 | [10] 0.059 | [11] 0.059 | [12] 0.092 | [13] 0.006 | [14] 0.21 | [15] 0.029 | [16] 0.095 | [17] -0.248 | [18] -0.046 | [19] 0.036 | [20] -0.033

SLC30A9 (UniProt Q6PML9)
inactive: [1] 0.042 | [2] 0.002 | [3] 0.057 | [4] -0.012 | [5] 0.03 | [6] -0.035 | [7] -0.07 | [8] 0.021 | [9] -0.083 | [10] 0.03 | [11] 0.006 | [12] 0.012 | [13] -0.045 | [14] -0.058 | [15] -0.051 | [16] -0.072 | [17] 0.095 | [18] -0.04 | [19] -0.033 | [20] 0.096

SLC35A4 (UniProt L0R6Q1)
inactive: [1] -0.021 | [2] -0.02 | [3] 0.075 | [4] 0.003 | [5] 0.07 | [6] 0.059 | [7] 0.038 | [8] -0.04 | [9] -0.025 | [10] 0.026 | [11] 0.039 | [12] 0.034 | [13] 0 | [14] -0.052 | [15] -0.008 | [16] 0.053 | [17] -0.024 | [18] -0.04 | [19] 0.049 | [20] 0.141

SLC26A6 (UniProt Q9BXS9)
inactive: [1] 0.043 | [2] 0.015 | [3] -0.008 | [4] 0.034 | [5] 0.011 | [6] -0.083 | [7] -0.162 | [8] -0.063 | [9] -0.098 | [10] 0.092 | [11] 0.08 | [12] 0.011 | [13] -0.008 | [14] -0.14 | [15] -0.055 | [16] 0.062 | [17] 0.129 | [18] 0.003 | [19] 0.039 | [20] -0.007

SLC4A1 (UniProt P02730)
inactive: [1] -0.06 | [2] 0.022 | [3] 0.059 | [4] 0.105 | [5] -0.13 | [6] -0.121 | [7] 0.013 | [8] 0.094 | [9] 0.024 | [10] 0.057 | [11] -0.034 | [12] 0.098 | [13] -0.078 | [14] -0.116 | [15] 0.025 | [16] 0.079 | [17] -0.015 | [18] 0.022 | [19] -0.002 | [20] 0.17

SLC20A2 (UniProt Q08357)
inactive: [1] -0.058 | [2] 0.05 | [3] 0.044 | [4] -0.046 | [5] 0.029 | [6] 0.016 | [7] 0.003 | [8] -0.032 | [9] 0.014 | [10] 0.004 | [11] 0.028 | [12] 0.003 | [13] 0.056 | [14] -0.09 | [15] 0.028 | [16] 0.016 | [17] 0.175 | [18] 0.042 | [19] -0.066 | [20] 0.023

SLC4A7 isoform 7 (UniProt Q9Y6M7)
inactive: [1] -0.029 | [2] -0.131 | [3] 0.042 | [4] 0.09 | [5] -0.072 | [6] -0.018 | [7] 0.052 | [8] 0.01 | [9] -0.006 | [10] -0.02 | [11] -0.042 | [12] 0.151 | [13] -0.142 | [14] 0.034 | [15] -0.009 | [16] 0.055 | [17] 0.038 | [18] 0.158 | [19] -0.032 | [20] 0.175
